Patent publication US20210093625A1, “COMBINATION THERAPY” (Celleron Therapeutics Limited, priority 2019, published 2021)
For at least one compound, name, drawing or mass did not settle the structure.

Columns and labels:
[1] = system: acetylation on histone H3 in SW620 cells; assay: Histone H3 acetylation in SW620 cells (Western blot); format: cell-based, human; conditions: SW620, 72 hours of treatment
colon26 tumours [2] = format: in vivo, Balb/c mice; conditions: orally, two 5-day consecutive periods, 15 and 50 mg/kg, dose-dependent, FIG. 7
[3] = system: SW620 human colon adenocarcinoma cells; assay: MTT assay on SW620 cells; format: cell-based; conditions: FIG. 1
colon26 cells = assay: qPCR of single genes in colon26 cells; format: cell-based, mouse; conditions: FIG. 6
colon26 tumours [4] = assay: qPCR of single genes in colon26 tumours; format: in vivo, Balb/c mice; conditions: FIG. 8
A20 tumours = assay: Syngeneic A20 B cell lymphoma model, combined treatment with anti-PD1; format: in vivo, mouse; conditions: CXD101 50mg/kg, mono-therapy or combined, FIG. 10
colon26 tumours [5] = assay: IHC of colon26 tumour micro-environment; format: in vivo, Balb/c mice
[6] = system: H3 acetylation in colon26 cells; assay: H3 acetylation in colon26 cells (Western blot); format: cell-based, mouse; conditions: colon26, FIG. 4
colon26 tumours [7] = assay: Colon26 syngeneic model, combined treatment with anti-PD1 or anti-CTLA4; format: in vivo; conditions: mono-therapy or combined treatment, FIG. 10
[8] = system: T-cell lymphoma, follicular lymphoma and Hodgkin lymphoma; conditions: patients with T-cell lymphoma; cited from earlier work
MC38 tumours = assay: MC38 syngeneic model, combined treatment with anti-PD1; format: in vivo, C57BL/6 mice; conditions: mono-therapy or combined treatment, FIG. 10
HDAC Class II = HDAC Class II inhibition; format: biochemical; conditions: no activity; read-out: activity against HDAC Class II
[9] = system: mouse colorectal colon26 cells; assay: Proliferation (MTT) of colon26 cells; format: cell-based; conditions: FIG. 4
SW620 cells = assay: qPCR of single genes in SW620 cells; format: cell-based, human; conditions: FIG. 3
Procedure: Total RNA purified from DMSO- or CXD101treated cells was transcribed into cDNA according to the manufacturer's instructions (iScript cDNA Synthesis Kit, Bio-Rad, USA). qPCR was conducted according to the manufacturer's protocol (SsoAdvanced Universal SYBR Green Supermix, Bio-Rad Laboratories, USA) on CFX Connect Real-Time System thermocycler (Bio-Rad Laboratories, USA).

In the case of `Cc1nn(C)cc1CN1CCC(c2ccc(C(=O)Nc3ccccc3N)cc2)CC1` [CXD101, N-(2-aminophenyl)-4-(1-[(1,3-dimethyl-1H-pyrazol-4-yl)methyl]piperidin-4yl)benzamide], the “level of acetylation on histone H3 lysine” value [1] is reported as “increased level of acetylation on histone H3 lysine”, the tumour growth (colon26 tumours [2]) is reported as “significant inhibition of tumour growth” and the “proliferation of human colon cancer cells” value [3] is reported as “blocks proliferation”. The “expression of Ctla4, H2-D1 and Tnfsrf8” value (colon26 cells) was “no effects”, the “expression of H2-DMb1 and H2-Eb1, H2-Dma, Ereg, Timp3, Ccl9, Cc20, 1133 and Rab3b” value (colon26 cells) was “increased” and the “expression of H2-T3” value (colon26 cells) was “decreased”. The “expression of Ccl20 and Tnfsrf8” value (colon26 tumours [4]) was “no effects”, the “expression of H2-DMb1 and H2-Eb1, H2-Dmb1, H2-T3, Ereg, Timp3, Ctla4, H2-D1, Ccl9, 1133” value (colon26 tumours [4]) was “increased” and the “expression of Rab3b” value (colon26 tumours [4]) was “decreased”. For the same compound, the “effect on A20 tumour progression” value (A20 tumours) was “modest effect”, the “changes in level of Tregs (FoxP3)” value (colon26 tumours [5]) was “quite modest” and the “CD68 and CD163 populations of macrophages” value (colon26 tumours [5]; compared to untreated animals, FIG. 9) was “reduced”. The “level of CD4 and CD8 lymphocytes” value (colon26 tumours [5]; relative to untreated control animals, FIG. 9) was “significant increase”, the “acetylation level of H3K9 in tumour biopsies” value (colon26 tumours [5]; vs untreated animals, FIG. 9) was “increased levels of nuclear H3K9 acetylation” and the “H3 acetylation in cells” value [6] was “increases the H3 acetylation in cells in a dose-dependent manner”. For the same compound, the “growth of colon26 tumours” value (colon26 tumours [7]) was “inhibitory effect on tumour growth”, the tumour reduction evident [8] was 63 % of patients and the MC38 tumour response (MC38 tumours) was “marginal response”. For the same compound, the IC50 (HDAC Class II) was ≥ 2500 nM, the “proliferation of colon26 cells” value [9] was “inhibits proliferation of colon26 cells in a dose- and time-dependent manner” and the “expression of HLA-B, HLA-F, HLA-DPA1, HLA-DQB1, CTLA4, CDKN1A, TIMP3” value (SW620 cells) was “increases”. The “expression of PHGDH, BCL2L15” value (SW620 cells) was “decreases”.
